Source: PMC6334227
Results are given in words; binding and its absence hold for the method and conditions named. Binding seen in cells or lysates may run through a third protein. Binding can be weak; no strength is given. Tags and fused reporters may be left off the sequences shown.

Amino acid sequences for entries named in this document (tags omitted). A change or cut given only in a name is not applied to a line headed by its entry.
UniProt Q7JKT6: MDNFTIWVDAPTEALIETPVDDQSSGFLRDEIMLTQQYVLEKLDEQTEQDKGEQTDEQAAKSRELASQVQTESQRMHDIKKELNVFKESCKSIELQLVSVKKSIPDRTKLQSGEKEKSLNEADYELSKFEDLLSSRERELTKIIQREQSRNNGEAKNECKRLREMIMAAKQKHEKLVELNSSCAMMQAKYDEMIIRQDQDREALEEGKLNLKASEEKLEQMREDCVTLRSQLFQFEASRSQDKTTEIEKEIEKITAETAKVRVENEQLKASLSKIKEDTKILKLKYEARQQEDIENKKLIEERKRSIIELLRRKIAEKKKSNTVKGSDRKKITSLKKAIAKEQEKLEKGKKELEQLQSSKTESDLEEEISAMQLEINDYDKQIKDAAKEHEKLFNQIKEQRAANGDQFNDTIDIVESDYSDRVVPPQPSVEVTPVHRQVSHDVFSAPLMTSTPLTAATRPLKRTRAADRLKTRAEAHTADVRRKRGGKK
UniProt O76388: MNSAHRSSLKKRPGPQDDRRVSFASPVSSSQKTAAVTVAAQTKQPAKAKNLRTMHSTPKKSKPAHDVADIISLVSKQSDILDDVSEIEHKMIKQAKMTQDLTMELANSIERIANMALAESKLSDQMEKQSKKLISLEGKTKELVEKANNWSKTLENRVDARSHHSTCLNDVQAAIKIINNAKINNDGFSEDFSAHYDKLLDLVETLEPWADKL

Biological target: T1, BRD-1::tag (C. elegans) (UniProt Q21209)
T1 sequence: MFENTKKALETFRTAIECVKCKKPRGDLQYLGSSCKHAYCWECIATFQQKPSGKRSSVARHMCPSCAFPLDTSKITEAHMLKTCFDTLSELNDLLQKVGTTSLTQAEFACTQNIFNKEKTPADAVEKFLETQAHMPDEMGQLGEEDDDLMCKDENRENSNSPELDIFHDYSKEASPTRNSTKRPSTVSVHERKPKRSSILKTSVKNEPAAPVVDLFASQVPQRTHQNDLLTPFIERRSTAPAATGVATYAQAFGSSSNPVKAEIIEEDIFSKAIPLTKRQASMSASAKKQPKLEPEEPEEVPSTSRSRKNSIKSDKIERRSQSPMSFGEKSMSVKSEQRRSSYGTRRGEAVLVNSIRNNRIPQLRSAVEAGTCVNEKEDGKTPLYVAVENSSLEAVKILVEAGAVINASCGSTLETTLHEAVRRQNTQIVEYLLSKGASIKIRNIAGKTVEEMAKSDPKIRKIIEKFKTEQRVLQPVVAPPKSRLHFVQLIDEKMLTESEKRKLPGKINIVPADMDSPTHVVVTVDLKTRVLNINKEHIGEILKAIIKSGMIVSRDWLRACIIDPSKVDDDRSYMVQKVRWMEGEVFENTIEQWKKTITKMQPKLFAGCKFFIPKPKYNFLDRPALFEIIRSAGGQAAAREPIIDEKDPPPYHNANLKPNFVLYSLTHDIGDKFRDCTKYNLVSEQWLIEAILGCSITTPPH
Experiment: co-IP; tandem immunoaffinity purification of the native CeBCD complex from dwIs3 worms (HA then Myc antibody columns, TEV elution), Western blot; soluble (S) and chromatin-bound (C) fractions, untreated and 12 h after 75 Gy IR; mock purification as control

Row | binding | Substance
1 | binds | SYP-1 (from UniProt Q7JKT6)
2 | binds | SYP-2 (from UniProt O76388)
